Here are results for 4 molecules from publication PMC6440744.

The chains behind the UniProt entries cited, without tags or fusion partners.
UniProt O95819: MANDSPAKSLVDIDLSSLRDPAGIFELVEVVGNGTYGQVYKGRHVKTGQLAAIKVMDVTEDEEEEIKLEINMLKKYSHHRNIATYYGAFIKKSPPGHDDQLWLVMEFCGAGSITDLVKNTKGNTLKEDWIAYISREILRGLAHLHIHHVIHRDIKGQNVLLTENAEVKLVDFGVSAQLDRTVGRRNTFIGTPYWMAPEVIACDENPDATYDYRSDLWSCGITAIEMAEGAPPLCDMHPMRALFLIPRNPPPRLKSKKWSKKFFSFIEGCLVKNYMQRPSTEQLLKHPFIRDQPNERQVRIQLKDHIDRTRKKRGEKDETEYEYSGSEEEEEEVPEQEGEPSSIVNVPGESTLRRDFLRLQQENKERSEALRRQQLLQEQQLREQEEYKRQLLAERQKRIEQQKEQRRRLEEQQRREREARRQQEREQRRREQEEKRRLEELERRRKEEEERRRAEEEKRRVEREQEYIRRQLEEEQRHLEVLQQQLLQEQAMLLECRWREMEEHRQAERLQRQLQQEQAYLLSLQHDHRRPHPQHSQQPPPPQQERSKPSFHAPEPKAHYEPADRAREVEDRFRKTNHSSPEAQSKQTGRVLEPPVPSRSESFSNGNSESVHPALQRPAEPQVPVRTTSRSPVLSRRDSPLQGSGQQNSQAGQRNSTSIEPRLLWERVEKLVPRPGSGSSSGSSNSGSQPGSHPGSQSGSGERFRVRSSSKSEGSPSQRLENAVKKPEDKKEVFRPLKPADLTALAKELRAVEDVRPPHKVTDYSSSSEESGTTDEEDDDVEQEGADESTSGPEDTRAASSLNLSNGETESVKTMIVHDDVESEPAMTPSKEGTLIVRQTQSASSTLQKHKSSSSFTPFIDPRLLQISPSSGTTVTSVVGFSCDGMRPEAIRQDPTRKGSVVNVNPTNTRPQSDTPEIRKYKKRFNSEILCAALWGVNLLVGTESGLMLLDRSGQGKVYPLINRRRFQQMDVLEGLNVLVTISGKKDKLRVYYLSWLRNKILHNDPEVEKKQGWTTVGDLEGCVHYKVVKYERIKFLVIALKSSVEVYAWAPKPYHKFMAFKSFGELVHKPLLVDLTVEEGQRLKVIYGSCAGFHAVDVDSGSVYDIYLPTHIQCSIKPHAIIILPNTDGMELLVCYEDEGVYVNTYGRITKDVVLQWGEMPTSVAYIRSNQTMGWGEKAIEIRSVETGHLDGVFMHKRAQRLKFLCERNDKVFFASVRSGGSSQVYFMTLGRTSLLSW
UniProt Q8TEW0: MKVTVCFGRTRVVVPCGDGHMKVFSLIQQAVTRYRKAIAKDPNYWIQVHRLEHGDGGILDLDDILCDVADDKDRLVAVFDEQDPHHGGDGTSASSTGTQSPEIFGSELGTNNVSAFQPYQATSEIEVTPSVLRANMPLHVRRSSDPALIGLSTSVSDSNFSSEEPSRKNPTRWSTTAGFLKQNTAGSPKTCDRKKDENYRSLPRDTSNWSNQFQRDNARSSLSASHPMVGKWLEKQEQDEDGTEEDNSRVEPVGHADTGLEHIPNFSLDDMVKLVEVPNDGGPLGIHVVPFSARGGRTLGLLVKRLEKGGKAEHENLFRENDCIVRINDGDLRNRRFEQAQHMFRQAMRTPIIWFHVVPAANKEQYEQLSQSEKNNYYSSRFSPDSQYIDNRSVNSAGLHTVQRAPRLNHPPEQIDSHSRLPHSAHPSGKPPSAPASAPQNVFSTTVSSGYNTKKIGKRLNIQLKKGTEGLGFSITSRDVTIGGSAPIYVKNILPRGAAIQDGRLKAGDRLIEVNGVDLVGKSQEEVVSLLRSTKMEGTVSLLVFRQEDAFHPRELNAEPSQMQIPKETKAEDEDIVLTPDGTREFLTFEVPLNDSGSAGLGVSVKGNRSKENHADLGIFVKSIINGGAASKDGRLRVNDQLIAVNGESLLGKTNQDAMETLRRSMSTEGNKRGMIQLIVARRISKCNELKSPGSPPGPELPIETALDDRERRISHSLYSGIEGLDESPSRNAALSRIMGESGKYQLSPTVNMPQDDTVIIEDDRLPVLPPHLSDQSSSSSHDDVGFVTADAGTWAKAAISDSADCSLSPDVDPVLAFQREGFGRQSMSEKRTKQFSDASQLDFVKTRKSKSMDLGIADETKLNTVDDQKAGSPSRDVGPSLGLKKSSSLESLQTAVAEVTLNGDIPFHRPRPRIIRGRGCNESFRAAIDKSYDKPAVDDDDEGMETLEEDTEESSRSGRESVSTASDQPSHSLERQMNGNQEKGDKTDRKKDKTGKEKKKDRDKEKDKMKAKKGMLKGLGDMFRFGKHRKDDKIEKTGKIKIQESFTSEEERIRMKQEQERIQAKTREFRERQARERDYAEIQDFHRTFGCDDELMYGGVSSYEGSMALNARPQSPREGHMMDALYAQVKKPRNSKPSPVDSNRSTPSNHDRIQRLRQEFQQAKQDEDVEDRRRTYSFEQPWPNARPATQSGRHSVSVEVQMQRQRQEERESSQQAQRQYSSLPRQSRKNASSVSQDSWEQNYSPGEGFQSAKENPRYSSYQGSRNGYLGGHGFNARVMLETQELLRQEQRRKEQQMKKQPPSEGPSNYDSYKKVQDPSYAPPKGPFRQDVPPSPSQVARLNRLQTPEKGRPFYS
UniProt Q8TEU7: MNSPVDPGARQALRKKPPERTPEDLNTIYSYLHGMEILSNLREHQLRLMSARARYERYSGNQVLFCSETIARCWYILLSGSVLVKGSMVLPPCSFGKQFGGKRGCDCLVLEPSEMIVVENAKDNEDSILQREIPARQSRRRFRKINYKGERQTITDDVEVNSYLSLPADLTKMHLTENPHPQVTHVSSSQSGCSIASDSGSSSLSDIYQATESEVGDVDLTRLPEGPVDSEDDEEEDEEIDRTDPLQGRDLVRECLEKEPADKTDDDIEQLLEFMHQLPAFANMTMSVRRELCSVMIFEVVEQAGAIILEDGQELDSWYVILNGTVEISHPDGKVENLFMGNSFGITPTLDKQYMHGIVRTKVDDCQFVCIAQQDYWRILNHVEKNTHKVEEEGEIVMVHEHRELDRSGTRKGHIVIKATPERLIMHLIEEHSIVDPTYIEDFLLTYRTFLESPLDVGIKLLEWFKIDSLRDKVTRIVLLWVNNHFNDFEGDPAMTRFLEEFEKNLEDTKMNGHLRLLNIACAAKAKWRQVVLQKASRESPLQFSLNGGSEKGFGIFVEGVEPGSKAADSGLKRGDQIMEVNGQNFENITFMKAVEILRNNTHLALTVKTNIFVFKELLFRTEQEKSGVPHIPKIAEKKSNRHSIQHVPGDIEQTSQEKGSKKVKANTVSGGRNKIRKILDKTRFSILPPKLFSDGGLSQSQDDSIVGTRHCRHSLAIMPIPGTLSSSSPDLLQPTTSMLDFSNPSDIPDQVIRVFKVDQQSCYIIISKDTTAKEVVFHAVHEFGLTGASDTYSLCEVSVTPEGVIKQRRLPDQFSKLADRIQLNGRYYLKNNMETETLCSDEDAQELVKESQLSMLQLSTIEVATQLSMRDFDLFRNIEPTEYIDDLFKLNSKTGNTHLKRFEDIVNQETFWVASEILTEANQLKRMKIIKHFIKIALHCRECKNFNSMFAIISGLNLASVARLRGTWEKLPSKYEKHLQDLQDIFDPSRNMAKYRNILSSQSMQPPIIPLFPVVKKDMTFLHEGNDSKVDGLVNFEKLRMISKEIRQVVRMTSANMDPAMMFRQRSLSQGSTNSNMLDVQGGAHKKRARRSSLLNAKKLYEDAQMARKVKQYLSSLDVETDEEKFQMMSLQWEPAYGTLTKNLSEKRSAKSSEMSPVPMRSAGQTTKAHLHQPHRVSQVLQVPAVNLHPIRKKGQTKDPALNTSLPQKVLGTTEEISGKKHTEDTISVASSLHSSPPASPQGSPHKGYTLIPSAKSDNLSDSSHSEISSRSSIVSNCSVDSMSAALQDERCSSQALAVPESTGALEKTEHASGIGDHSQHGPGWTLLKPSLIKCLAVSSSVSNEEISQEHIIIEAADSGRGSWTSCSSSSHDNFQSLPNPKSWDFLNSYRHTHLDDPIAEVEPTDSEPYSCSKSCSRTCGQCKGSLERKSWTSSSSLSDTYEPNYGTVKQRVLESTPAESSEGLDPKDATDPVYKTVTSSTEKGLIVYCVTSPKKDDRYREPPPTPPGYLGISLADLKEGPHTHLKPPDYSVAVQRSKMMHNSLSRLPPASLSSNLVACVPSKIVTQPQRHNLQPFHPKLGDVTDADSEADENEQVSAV

Where a chain is given by its changes, count along the chain named. Results are given in words; binding and its absence hold for the method and conditions named. Binding seen in cells or lysates may run through a third protein. These calls come from enrichment with a bait or labelling near it, and not all partners need be listed. For part of these data: Tags and fused reporters may be left off the sequences shown.

For assay [1], the target named is T1, PTPRK ICD-D1057A (substrate-trapping mutant) (human) (UniProt Q15262).
T1 sequence (chain, biotin on the AviTag): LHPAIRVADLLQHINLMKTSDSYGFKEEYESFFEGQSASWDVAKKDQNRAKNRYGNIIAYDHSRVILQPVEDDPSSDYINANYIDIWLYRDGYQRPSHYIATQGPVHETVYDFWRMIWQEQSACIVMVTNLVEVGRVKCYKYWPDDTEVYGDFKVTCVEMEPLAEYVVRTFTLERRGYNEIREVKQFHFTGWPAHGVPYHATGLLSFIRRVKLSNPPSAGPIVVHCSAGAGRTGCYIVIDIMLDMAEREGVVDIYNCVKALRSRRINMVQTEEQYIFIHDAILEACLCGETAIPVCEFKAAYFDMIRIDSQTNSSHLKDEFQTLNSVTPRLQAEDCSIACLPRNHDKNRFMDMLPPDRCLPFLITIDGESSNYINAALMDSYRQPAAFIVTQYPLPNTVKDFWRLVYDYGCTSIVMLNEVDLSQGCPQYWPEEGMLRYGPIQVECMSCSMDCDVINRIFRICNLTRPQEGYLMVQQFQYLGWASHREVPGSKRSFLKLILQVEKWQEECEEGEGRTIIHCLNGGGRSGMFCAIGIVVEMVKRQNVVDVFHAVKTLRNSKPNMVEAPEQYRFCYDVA
In words: affinity purification with mass spectrometry; as for MCF10A, with lysates of confluent, pervanadate-treated Hs27 human fibroblasts (n = 3); only the target purified.

The target of assay [2] is T1, PTPRK ICD-D1057A (substrate-trapping mutant) (human). Put plainly: affinity purification with mass spectrometry; biotinylated His.TEV.Avi PTPRK domains on streptavidin-coated magnetic beads; 1 mg/ml pre-cleared lysate of confluent, pervanadate-treated MCF10A cells, 1.5 hr at 4°C; washes with 150 mM and 500 mM NaCl wash buffers; on-bead tryptic digest; label-free quantification against beads only or the wildtype ICD (n = 4; D2 n = 3); only the target purified.

The target in assay [3] is T2, PTPRK-C1089S.BirA*-Flag (human) (UniProt Q15262).
T2 sequence: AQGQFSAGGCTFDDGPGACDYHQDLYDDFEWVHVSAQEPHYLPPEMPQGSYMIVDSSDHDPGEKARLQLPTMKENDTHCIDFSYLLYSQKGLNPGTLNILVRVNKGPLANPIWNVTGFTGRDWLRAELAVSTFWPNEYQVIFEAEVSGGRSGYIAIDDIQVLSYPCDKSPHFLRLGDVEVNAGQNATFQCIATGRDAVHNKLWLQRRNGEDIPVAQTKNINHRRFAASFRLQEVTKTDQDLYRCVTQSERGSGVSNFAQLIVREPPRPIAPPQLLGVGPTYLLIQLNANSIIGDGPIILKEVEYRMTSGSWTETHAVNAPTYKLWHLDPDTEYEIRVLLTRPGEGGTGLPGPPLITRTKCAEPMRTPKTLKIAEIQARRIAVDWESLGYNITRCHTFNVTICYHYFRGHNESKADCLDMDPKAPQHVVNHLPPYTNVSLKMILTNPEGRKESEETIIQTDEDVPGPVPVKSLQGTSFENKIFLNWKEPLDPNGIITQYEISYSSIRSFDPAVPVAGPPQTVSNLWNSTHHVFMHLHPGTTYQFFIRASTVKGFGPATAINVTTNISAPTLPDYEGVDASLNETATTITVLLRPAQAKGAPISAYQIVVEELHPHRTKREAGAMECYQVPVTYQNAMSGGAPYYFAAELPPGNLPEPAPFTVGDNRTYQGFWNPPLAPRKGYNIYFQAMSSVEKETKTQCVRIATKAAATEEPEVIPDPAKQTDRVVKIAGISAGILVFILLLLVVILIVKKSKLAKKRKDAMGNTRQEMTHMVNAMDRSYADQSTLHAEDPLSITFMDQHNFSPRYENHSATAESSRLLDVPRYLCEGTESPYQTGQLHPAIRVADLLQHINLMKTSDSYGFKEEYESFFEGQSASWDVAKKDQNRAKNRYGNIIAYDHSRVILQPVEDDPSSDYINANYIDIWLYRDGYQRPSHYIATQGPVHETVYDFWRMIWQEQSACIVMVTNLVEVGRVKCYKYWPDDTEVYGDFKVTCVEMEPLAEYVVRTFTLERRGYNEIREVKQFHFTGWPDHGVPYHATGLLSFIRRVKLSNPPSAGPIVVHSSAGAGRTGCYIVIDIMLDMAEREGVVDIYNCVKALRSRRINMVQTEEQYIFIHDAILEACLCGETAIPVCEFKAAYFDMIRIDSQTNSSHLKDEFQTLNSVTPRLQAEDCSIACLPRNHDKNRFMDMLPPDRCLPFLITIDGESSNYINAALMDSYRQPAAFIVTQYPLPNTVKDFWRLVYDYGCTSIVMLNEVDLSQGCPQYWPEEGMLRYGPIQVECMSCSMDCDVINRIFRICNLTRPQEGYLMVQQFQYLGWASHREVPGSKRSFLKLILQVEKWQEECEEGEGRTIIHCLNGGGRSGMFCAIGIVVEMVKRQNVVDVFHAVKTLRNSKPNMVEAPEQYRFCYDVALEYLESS
Put plainly: proximity labelling; BioID in confluent MCF10A cells: doxycycline-induced PTPRK-C1089S.BirA*-Flag compared with PTPRK(1-785).BirA*-Flag and tGFP; 50 μM biotin for 24 hr; RIPA lysis, streptavidin agarose pull down, immunoblot. In general terms: In western blotting, separated proteins are transferred to a membrane and probed.

Assay [4] has as its target T3, PTPRK ICD-C1089S (substrate-trapping mutant) (human) (UniProt Q15262).
T3 sequence (chain, biotin on the AviTag): T1 sequence (chain, biotin on the AviTag) with A194D, C226S
In words: affinity purification with mass spectrometry; as for MCF10A, with lysates of confluent, pervanadate-treated Hs27 human fibroblasts (n = 3); only the target purified.

Assay [5] has as its target T3, PTPRK ICD-C1089S (substrate-trapping mutant) (human). Put plainly: affinity purification with mass spectrometry; biotinylated His.TEV.Avi PTPRK domains on streptavidin-coated magnetic beads; 1 mg/ml pre-cleared lysate of confluent, pervanadate-treated MCF10A cells, 1.5 hr at 4°C; washes with 150 mM and 500 mM NaCl wash buffers; on-bead tryptic digest; label-free quantification against beads only or the wildtype ICD (n = 4; D2 n = 3); only the target purified.

Turning to MAP4K4 (from UniProt O95819 1-1239), the binding entry in assay [1] and in assay [2] was “binds” in each case.

As for PARD3 (from UniProt Q8TEW0 1-1356), the binding result in assay [3], in assay [4] and in assay [5] was “binds” each time.

Consider RAPGEF6 (from UniProt Q8TEU7 1-1601), for which the binding entry in assay [1] and in assay [2] was “binds” each time.

B1: PLEKHA6 (protein, UniProt Q9Y2H5 1-1048)
chain: MSNKTGGKRPATTNSDIPNHNMVSEVPPERPSVRATRTARKAVAFGKRSHSMKRNPNAPVTKAGWLFKQASSGVKQWNKRWFVLVDRCLFYYKDEKEESILGSIPLLSFRVAAVQPSDNISRKHTFKAEHAGVRTYFFSAESPEEQEAWIQAMGEAARVQIPPAQKSVPQAVRHSHEKPDSENVPPSKHHQQPPHNSLPKPEPEAKTRGEGDGRGCEKAERRPERPEVKKEPPVKANGLPAGPEPASEPGSPYPEGPRVPGGGEQPAQPNGWQYHSPSRPGSTAFPSQDGETGGHRRSFPPRTNPDKIAQRKSSMNQLQQWVNLRRGVPPPEDLRSPSRFYPVSRRVPEYYGPYSSQYPDDYQYYPPGVRPESICSMPAYDRISPPWALEDKRHAFRNGGGPAYQLREWKEPASYGRQDATVWIPSPSRQPVYYDELDAASSSLRRLSLQPRSHSVPRSPSQGSYSRARIYSPVRSPSARFERLPPRSEDIYADPAAYVMRRSISSPKVPPYPEVFRDSLHTYKLNEQDTDKLLGKLCEQNKVVREQDRLVQQLRAEKESLESALMGTHQELEMFGSQPAYPEKLRHKKDSLQNQLINIRVELSQATTALTNSTIEYEHLESEVSALHDDLWEQLNLDTQNEVLNRQIQKEIWRIQDVMEGLRKNNPSRGTDTAKHRGGLGPSATYSSNSPASPLSSASLTSPLSPFSLVSGSQGSPTKPGSNEPKANYEQSKKDPHQTLPLDTPRDISLVPTRQEVEAEKQAALNKVGVVPPRTKSPTDDEVTPSAVVRRNASGLTNGLSSQERPKSAVFPGEGKVKMSVEEQIDRMRRHQSGSMREKRRSLQLPASPAPDPSPRPAYKVVRRHRSIHEVDISNLEAALRAEEPGGHAYETPREEIARLRKMELEPQHYDVDINKELSTPDKVLIPERYIDLEPDTPLSPEELKEKQKKVERIKTLIAKSSMQNVVPIGEGDSVDVPQDSESQLQEQEKRIEISCALATEASRRGRMLSVQCATPSPPTSPASPAPPANPLSSESPRGADSSYTMRV
As for B1, the binding entry in assay [4] and in assay [5] was “binds” each time.
